The values below are quoted from earlier work in PMC7226106, “Population Pharmacokinetics/Pharmacodynamics of Dabrafenib Plus Trametinib in Patients with BRAF-Mutated Metastatic Melanoma” (Cancers, 2020).

In the data set the test system is BRAF-mutated MM patients. As to conditions: cited from earlier work.

As for `CC(C)(C)c1nc(-c2cccc(NS(=O)(=O)c3c(F)cccc3F)c2F)c(-c2ccnc(N)n2)s1` [DAB, Dabrafenib], the “plasma trough threshold predicting the occurrence of DLT” value was 48 ng/mL.

Turning to `CC(=O)Nc1cccc(-n2c(=O)n(C3CC3)c(=O)c3c(Nc4ccc(I)cc4F)n(C)c(=O)c(C)c32)c1` [TRA, trametinib], where the note is “phase 2 trial, TRA monotherapy vs. CombiDT, not confirmed in phase 3”, the “trough plasma concentration associated with a better clinical efficacy” value is “above 10.6 ng/mL”.
